From patent US20070099830A1

Experiments:
[1] = target: adenine nucleotide transporter (endogenous, 293T cells) (human); assay: co-immunoprecipitation from 293T cells with α-FLAG, western blot
[2] = target: adenine nucleotide transporter (endogenous, MIN6 cells) (mouse); assay: co-immunoprecipitation of endogenous proteins from MIN6 cells, western blot

Binder	binding [1]	binding [2]
human Sirt4 with a C-terminal FLAG (enzyme, not shown: small tags and cut ends) IGLFVPASPPLDPEKVKELQRFITLSKRLLVMTGAGISTESGIPDYRSEKVGLYARTDRRPIQHGDFVRSAPIRQRYWARNFVGWPQFSSHQPNPAHWALSTWEKLGKLYWLVTQNVDALHTKAGSRRLTELHGCMDRVLCLDCGEQTPRGVLQERFQVLNPTWSAEAHGLAPDGDVFLSEEQVRSFQVPTCVQCGGHLKPDVVFFGDTVNPDKVDFVHKRVKEADSLLVVGSSLQVYSGYRFILTAWEKKLPIAILNIGPTRSDDLACLKLNSRCGELLPLIDPC	binds	
mouse Sirt4 (endogenous, MIN6 cells) (enzyme) SGLFVPPSPPLDPEKIKELQRFISLSKKLLVMTGAGISTESSIPDYRSEKVGLYARTDRRPIQHIDFVRSAPVRQRYWARNFVGWPQFSSHQPNPAHWALSNWERLGKLHWLVTQNVDALHSKAGSQRLTELHGCMHRVLCLNCGEQTARRVLQERFQALNPSWSAEAQGVAPDGDVFLTEEQVRSFQVPCCDRCGGPLKPDVVFFGDTVNPDKVDFVHRRVKEADSLLVVGSSLQVYSGYRFILTAREQKLPIAILNIGPTRSDDLACLKLDSRCGELLPLIDPRRQHSDVQRLEMNFPLSSAAQDP		binds

These are yes or no findings as the source states them, for the method shown. Binding seen in cells or lysates may run through a third protein. Binding can be weak; no strength is given. For some assays here: Where a sequence is shown, tags or fusion partners need not be part of it.
